Laboratory results as given in PubChem BioAssay AID1347423 (Functional Genomics Laboratory (NCATS/FGL), 2020).
In all, about 52,000 sequences went through this assay and about 210 (0.4%) were called active.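 The calls were made as follows: active = gene whose silencing raises cell survival under the drug, median off-target-corrected z-score across its silencing RNAs 2 or more; inactive = the rest.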 The list shows a part of the results.

Experiment: Resistance to Poly (ADP-Ribose) Polymerase inhibitor: Gene Identification via Genome-wide siRNA Screen
Details: mouse BRCA2 R2336H ES cells, olaparib, CellTiter-Glo viability; hits give high values
Text: The role of Poly (ADP-Ribose) Polymerase (PARP) proteins in DNA repair has been elegantly utilized for the synthetic lethality-based treatment of BRCA-deficient tumors by PARP inhibitors. PARP inhibitors are now being used for treatment of BRCA-deficient breast and ovarian cancers. […] While several mechanisms of drug resistance have been identified, majority of these tumors develop drug resistance due to unknown causes. To identified novel regulators of chemo-resistance in BRCA2-mutated cells, we performed a genome wide siRNA library screen. We have found ES cells expressing a hypomorphic allele of BRCA2 to be hypersensitive to PAPP inhibitors (such as olaparib). We used ES cells expressing a mutant allele of BRCA2 that has a single amino acid substitution at position 2336 (arginine to histidine, R2336H). The screen was conducted using an Ambion (Thermo) Silencer Mouse Genome siRNA collection. The library targets 17,575 mouse genes with 3 siRNAs per gene. TET2 (E130014J05Rik) was identified as a top candidate.
Transfections were performed in 384 well plates (Corning 3707). Plates were coated with 0.1% gelatin in H2O overnight at ambient temperature. Gelatin solution was aspirated (BioTek EL406) and siRNAs were printed using a Bravo VPrep liquid handler integrated within a BioCel automation platform (Agilent). Cell viability was measured using CellTiter Glo (Promega). For transfections, […] of serum free media containing Lipofectamine RNAiMax […] was added to wells containing siRNA (0.8pmol). Lipid and siRNA were allowed to complex for 45 min at ambient temperature before addition of 1000 cells in DMEM, 30% FBS to yield final transfection mixtures containing 20 nM siRNA in DMEM, 15% FBS. PARPi (olaparib, AZD2281) was added 48 h post-transfection (500 nM) and viability (CellTiter Glo, Promega) was assayed 72 h later on a PerkinElmer Envision 2104 Multilabel plate reader. Ambion Silencer Select Negative Control #2 was incorporated on all screening plates (16 wells) and the median negative control value on each plate was used for normalization. An siRNA targeting Trp53 was used as a positive control. This control yielded a median protective effect of ~1.9 fold versus negative control throughout the screen. The median absolute deviation (MAD) based z-score was calculated for each siRNA. Genes were then ranked by taking the median value for all siRNAs tested against a given gene. Scores were also adjusted for seed-based off-target effects to help deprioritize likely false positives.

Sequence | z-score
GGUUGGAUACUCGUCUUCATT against Olfr421 | inactive: -2
GGCUUUGUAGCCUAGCUAGTT against Cd81 | inactive: 1.88
GCUGUUUCUCUAAUAACACTT against D130011D22Rik | inactive: -0.935
GGAUACUGUGUGGUCAUGUTT against 6330516O17Rik | inactive: -1.83
GGCUCACAAUUGCUGUGUATT against Psg23 | inactive: -0.2
ACAUGUCCUCUGUGCAUAUTT against LOC380997 | inactive: 0.938
GGCAAAAAGGGCAUUGUCCTT against Birc1a | inactive: -1.18
GGACCAGUUUGAGUAUGAGTT against 5730466P16Rik | inactive: -3.27
GGAGACAAGCUUCUUUGAUTT against Abcb9 | inactive: 0.118
GGAGACAUUCACUGUCUUCTT against Ephb4 | inactive: -1.12
GCACAAAGACUUAAACAUCTT against Egfl6 | inactive: 1.17
CCUGUAGGAUUGUUUUGAATT against Slc39a8 | inactive: 0.398
CCAUGGUAGUUAAAAAUGUTT against 2600011C06Rik | inactive: -2.31
CCGUGGAGUAACAAGUAUGTT against Capzb | inactive: -0.958
UGGCAAGAUUGAAACCAUATT against Hnrpa3 | inactive: 1.37
GGAUGAAGAUGAAAAGGAATT against Ube3a | inactive: -1.25
GGCAAAAAGUAUGCCUUAGTT against Pi4k2b | inactive: -1.43
GGAAAGGUUUUCAUCAACATT against 1110061L23Rik | inactive: 1.74
GGCGGACAGAAAUUAUAGATT against C430013M08Rik | inactive: -1.09
GGCUUGUGACUACGAAAUATT against Olfr1364 | inactive: -0.178
GGCUAAUGUAUCGUCUGAGTT against Asb16 | active: 0.422
GGAUUUAUCAUAUUACUGCTT against Pop1 | inactive: 0.806
CGAUGACUGGACACAUUUGTT against Sqstm1 | inactive: -0.901

Sequence | z-score
GGGAAAACCACAAGACACUTT against Dppa4 | inactive: 1.53
GGCCUGUUUUUGCAUUUUATT against 9030612E09Rik | inactive: 0.978
GCGGUCUUUACUUAGAGGGTT against Bri3 | inactive: 0.445
GCUUACCUUGACCAACCUCTT against Chrng | active: 1.84
GGUGUACACAUAAAUAUUGTT against Prlpc1 | inactive: 0.901
GGUGUUGGUGAACGUAAAGTT against Eif3s2 | inactive: -0.728
GGACAGAUGAGAGAGAAUUTT against Ttl | inactive: 0.122
GGCAUUGACAUCAUGUACUTT against Agxt | inactive: 2.16
GGAUUGGUGCAACUUCAGATT against Sp4 | inactive: 1.53
GGGACAAAGAGAUACACAUTT against 9530056K15Rik | inactive: -1.18
GGUUUGGUGAAAACAAUCGTT against Akr1b3 | inactive: 1.47
GGAGCAGGACGAGAAUCAATT against Cdkn1c | inactive: 2.94
GCUUUUUGAUCACGUCGCUTT against Hk1 | inactive: 0.423
GGACACACACACAAAUUUGTT against Vps29 | inactive: -1.23
GGAUGACAUGUCAUCAAAGTT against V1rj2 | inactive: -0.249
GGAAAUUGUGAAAACUGGGTT against Copb2 | inactive: -1.7
GGUUUUGAGAUUGAAAGAATT against Fer1l3 | inactive: -0.553
GGUGUCCAAAAAUAAGCAATT against Top2a | inactive: 0.687
CCAAUAGGUCUGCUUGCCUTT against Oxgr1 | inactive: -0.4
GGUGAAAAACUGCUAAAUATT against 4921521F21Rik | inactive: 1.77
GGUUUUUAACCUCUCCUGGTT against Mela | inactive: -0.616
GAAGACUUCGUCCUAACAGTT against Ctsg | inactive: -1.51
GGAGCUGUAUGACCAUGCCTT against Rab25 | inactive: 0.282

Sequence | z-score
GCUUGAACUUCCCGAGUGUTT against Krtcap3 | inactive: 0.00774
GGGACAGUGUUUAUGACCCTT against Car5b | inactive: 1.28
GGUGUGGUGUGAGAUCUAUTT against Adra2a | inactive: 0.0486
GCUGUAGCUUCGGGCAAAGTT against BC043118 | inactive: -1.31
GGUUGUGUGUUAUUUAUAGTT against Irak2 | inactive: -0.71
GCACGAGACACUUUUCAUUTT against Dnajb5 | inactive: 0.836
GGGUCUUGAGAAUCUUAUGTT against Zfp454 | inactive: 0.471
GGUCCAGAGGAUGAACAGATT against Crcp | inactive: -0.473
GGAAUGGUACUAUCAAAUATT against Bace2 | inactive: -0.243
GGUUUAACAAGGAAUUAGGTT against Gngt1 | inactive: 0.787
GGGAAUAUUCAGUUGACAATT against Iigp1 | inactive: -0.297
GGUGAUUUCCAUCUACAACTT against Tgfb2 | inactive: 0.0584
GGUGCCUGAGAUGCCCAAUTT against Defcr-rs12 | inactive: -0.888
GGUGAUGAGCAACUUGGACTT against S100a4 | inactive: -0.23
GGCCAAUUUGAAUAAUCUATT against Zfp119 | inactive: 0.0816
GGUUCAGAACCAGUCCAUCTT against BC024955 | inactive: -0.59
UUCUAAUCACAAAGGUUGATT against Olfr1113 | inactive: 0.464
GGCAUAUGUGCAAAUAAAATT against Tmem7 | inactive: -0.984
GGGAUAUUGAGUUAGCCUGTT against Bet1 | inactive: 0.788
CGUGGCAAGAUGACUAUACTT against Ptprn2 | inactive: 0.724
GCCUAUUGUCAGAAAAGUUTT against Usp4 | inactive: -2.18

Some values from the list.
For z-score, CGUGGCAAGAUGACUAUACTT against Ptprn2 reads inactive: 0.724
For z-score, GGCCAAUUUGAAUAAUCUATT against Zfp119 reads inactive: 0.0816
For z-score, GGUGAUGAGCAACUUGGACTT against S100a4 reads inactive: -0.23
For z-score, GCUUGAACUUCCCGAGUGUTT against Krtcap3 reads inactive: 0.00774
